Source: PMC4661529
These are yes or no findings as the source states them, for the method shown. For part of these data: Binding seen in cells or lysates may run through a third protein. Some results given as binding are weak or reduced against the parent protein; the word gives no strength. Where a sequence is shown, tags or fusion partners need not be part of it. Each block holds one molecule with its values, some of them ahead of it.

Amino acid sequences for entries named in this document (tags omitted). A change or cut given only in a name is not applied to a line headed by its entry. Residues count along the entry.
UniProt P17302: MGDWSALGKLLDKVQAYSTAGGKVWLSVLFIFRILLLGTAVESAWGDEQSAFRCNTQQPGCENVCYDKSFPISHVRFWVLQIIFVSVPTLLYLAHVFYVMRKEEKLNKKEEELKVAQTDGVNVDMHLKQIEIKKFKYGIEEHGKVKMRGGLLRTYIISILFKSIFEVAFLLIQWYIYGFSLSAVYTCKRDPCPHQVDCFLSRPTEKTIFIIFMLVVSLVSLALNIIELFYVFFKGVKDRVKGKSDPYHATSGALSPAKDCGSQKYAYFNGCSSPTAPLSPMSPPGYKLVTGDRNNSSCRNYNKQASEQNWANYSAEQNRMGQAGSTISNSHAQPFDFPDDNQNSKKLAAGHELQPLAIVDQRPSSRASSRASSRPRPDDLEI
DeltaCx43-Tau: residues 147-382 of P17302
UniProt Q13283: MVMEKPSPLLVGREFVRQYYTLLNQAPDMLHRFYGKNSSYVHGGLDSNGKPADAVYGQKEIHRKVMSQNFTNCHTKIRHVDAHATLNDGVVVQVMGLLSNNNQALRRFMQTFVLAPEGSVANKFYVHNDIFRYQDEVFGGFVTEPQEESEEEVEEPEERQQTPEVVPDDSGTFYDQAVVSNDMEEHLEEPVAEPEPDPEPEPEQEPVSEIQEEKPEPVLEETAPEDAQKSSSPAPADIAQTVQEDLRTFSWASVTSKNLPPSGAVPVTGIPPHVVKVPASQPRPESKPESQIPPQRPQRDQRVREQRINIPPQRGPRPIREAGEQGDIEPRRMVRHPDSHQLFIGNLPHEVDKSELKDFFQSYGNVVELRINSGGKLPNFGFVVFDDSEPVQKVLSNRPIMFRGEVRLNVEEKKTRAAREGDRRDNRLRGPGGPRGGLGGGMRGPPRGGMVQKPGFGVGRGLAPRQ
UniProt P67809: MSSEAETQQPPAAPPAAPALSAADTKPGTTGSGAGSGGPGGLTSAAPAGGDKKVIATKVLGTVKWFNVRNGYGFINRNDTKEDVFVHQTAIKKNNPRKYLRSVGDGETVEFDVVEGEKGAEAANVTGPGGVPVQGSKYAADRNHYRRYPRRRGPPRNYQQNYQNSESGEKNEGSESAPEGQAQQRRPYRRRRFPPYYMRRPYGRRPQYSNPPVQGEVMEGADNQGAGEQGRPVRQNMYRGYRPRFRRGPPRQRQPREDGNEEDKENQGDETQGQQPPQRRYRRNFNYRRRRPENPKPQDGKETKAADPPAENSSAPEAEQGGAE

Key:
Lin28-GFP (human) = biological target: T1, Lin28-GFP (human) (UniProt Q9H9Z2); assay: co-IP; whole cell lysate of transfected HeLa cells (25 mM Tris, 150 mM NaCl, 1 mM EDTA, 1% Triton-X, pH 7.4); anti-GFP antibody and Dynabeads Protein G overnight at 4 °C; endogenous proteins detected by western blot
T1 sequence: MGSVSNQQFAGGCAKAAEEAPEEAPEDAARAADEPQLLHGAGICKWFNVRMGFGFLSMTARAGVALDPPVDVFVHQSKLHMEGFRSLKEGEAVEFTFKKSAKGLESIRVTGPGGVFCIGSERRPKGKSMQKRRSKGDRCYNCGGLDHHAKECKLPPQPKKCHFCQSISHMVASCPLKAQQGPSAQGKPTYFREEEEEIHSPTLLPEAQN

DeltaCx43-Tau (human) = DeltaCx43-Tau (human) (UniProt P17302); assay: microtubule bench (prey brought to microtubules by a bait fused to Tau, fluorescence microscopy); NRK cells expressing DeltaCx43-Tau as bait and a GFP-labelled prey; fixed cells stained with anti-Tau antibody; line profiles
G3BP1-RFP-Tau (human) = G3BP1-RFP-Tau (human) (UniProt Q13283); assay: microtubule bench (prey brought to microtubules by a bait fused to Tau, fluorescence microscopy); HeLa cells co-transfected with RFP-Tau-fused bait and GFP-labelled prey; fixed cells (methanol/PFA) and living cells (videomicroscopy), also during microtubule regrowth after nocodazole washout; colocalization scored by the spearman coefficient
YB-1-RFP-Tau (human) = YB-1-RFP-Tau (human) (UniProt P67809); assay: as above
Lin28-RFP-Tau (human) = biological target: T2, Lin28-RFP-Tau (human) (UniProt Q9H9Z2); assay: as above
T2 sequence: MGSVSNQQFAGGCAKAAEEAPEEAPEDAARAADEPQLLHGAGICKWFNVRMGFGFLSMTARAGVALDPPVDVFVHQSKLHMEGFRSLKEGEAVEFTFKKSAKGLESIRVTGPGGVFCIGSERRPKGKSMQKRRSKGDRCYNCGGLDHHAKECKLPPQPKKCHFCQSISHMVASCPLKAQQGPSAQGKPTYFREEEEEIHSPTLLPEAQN

Molecule: Cx43-GFP (from UniProt P17302 1-382)
binding (DeltaCx43-Tau (human)): binds

B1: CLDN10-GFP (protein, UniProt P78369 1-228)
chain: MASTASEIIAFMVSISGWVLVSSTLPTDYWKVSTIDGTVITTATYWANLWKACVTDSTGVSNCKDFPSMLALDGYIQACRGLMIAAVSLGFFGSIFALFGMKCTKVGGSDKAKAKIACLAGIVFILSGLCSMTGCSLYANKITTEFFDPLFVEQKYELGAALFIGWAGASLCIIGGVIFCFSISDNNKTPRYTYNGATSVMSSRTKYHGGEDFKTTNPSKQFDKNAYV
binding (DeltaCx43-Tau (human)): no binding

Continued, values first:

binding (Lin28-GFP (human)): binds
Molecule: endogenous YB-1 (from UniProt P67809 1-324)

binding (G3BP1-RFP-Tau (human)): no binding
binding (YB-1-RFP-Tau (human)): binds
binding (Lin28-RFP-Tau (human)): binds
B2: Lin28-GFP (protein, UniProt Q9H9Z2 1-209)
chain: MGSVSNQQFAGGCAKAAEEAPEEAPEDAARAADEPQLLHGAGICKWFNVRMGFGFLSMTARAGVALDPPVDVFVHQSKLHMEGFRSLKEGEAVEFTFKKSAKGLESIRVTGPGGVFCIGSERRPKGKSMQKRRSKGDRCYNCGGLDHHAKECKLPPQPKKCHFCQSISHMVASCPLKAQQGPSAQGKPTYFREEEEEIHSPTLLPEAQN
